In article PMC6137095, “Sertraline, chlorprothixene, and chlorpromazine characteristically interact with the REST-binding site of the corepressor mSin3, showing medulloblastoma cell growth inhibitory activities” (Scientific Reports, 2018):

Molecular target: T1, mSin3B PAH1 domain (Mus musculus, UniProt Q62141)
T1 construct: gene Sin3b; PAH1 domain, a.a; 28–107 with a Met at the N-terminus (GST fusion for WaterLOGSY/STD)
T1 sequence (Q62141 28-107): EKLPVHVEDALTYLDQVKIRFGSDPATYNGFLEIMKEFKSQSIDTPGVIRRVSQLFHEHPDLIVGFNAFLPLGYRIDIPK
Assay: WaterLOGSY NMR titration; STD and 1H-15N HSQC
Assay type: binding

CN[C@H]1CC[C@@H](c2ccc(Cl)c(Cl)c2)c2ccccc21 [YN31, sertraline]
Kd: 39 ± 22 µM
